The values below come from patent publication US20210107982A1.

The labels stand for the following.
B1: 41BB-9-IgG2 (antibody, V domains shown)
VH: QVQLVQSGAEVKKPGSSVKVSCKASGGTFSSYAISWVRQAPGQGLEWMGGIIPISGAVNYAQKFQGRVTITADESTSTAYMELSSLRSEDTAVYYCARDQFIKYYDFSSGYFPNGFDIWGKGTLVTVSS
VL: QTVVTQPPSVSVSPGQTASITCSGDKLGDKYAAWYQQKPGQSPVLVIYQDTVRPSGIPERFSGSNSGNTATLTISGTQAMDEADYYCQTWVSSTGVFGTGTKVTVLG
B2: 41BB-27-IgG2 (antibody, V domains shown)
VH: QVQLQESGPGPVKPSETLSLTCAVSGGSISSSHWWSWVRQPPGKGLEWIGEIYHSGRTYYNPSLKSRVTISVDTSRNQFSLKLSSVTAADTAVYYCAREDGGIMDVWGQGTLVTVSS
VL: LSSELTQDPAVSVALGQTVRITCQGDSLRRFYASWYQQKPGQAPVLVIYGKNNRPSGIPDRFSASDSGNTASLTITGAQAEDEADYYCSSRDRSGYRWVFGGGTKVTVLG
B3: 41BB-2-IgG2 (antibody, V domains shown)
VH: QVQLQESGGGLVQPGGSLRLSCAVSGFTFSSYAMHWVRQAPGKGLEWVAVISYDGSKKWYADSVKGRFTISRDNSKNTLYLQMNSLRAEDTAVYYCARNQGSGSYLYYYYMDVWGKGTTVTVSS
VL: QSALTQPRSVSGSPGQSVTISCTGTSSDVGGYNYVSWYQQLPGKAPKVIIYEVSNRPSGVSNRFSGSKSGNTASLTISGVQSEDEADYYCSSYTSSSTFYVFGTGTQLTVLS
B4: 41BB-13-IgG2 (antibody, V domains shown)
VH: EVQLVETGVEVKKPGASVKVSCKASGYTFTSYYMHWVRQAPGQGLEWMGIINPSGGSTSYAQKFQGRVTMTRDTSTSTAYMELSSLRSEDTAVYYCARDLGEGYDFWSGYYTPSGAFDIWGKGTMVTVSS
VL: QSALTQPASVSGSPGQSITISCTGTSSDVGGYNYVSWYQQRPGKAPKLIIYDVTTRPSGVSNRFSGSKSGTTASLTISGLQAEDEADYYCSSYTSYSTWVFGGGTKLTVLG

No constants are given. Whether binding was seen depends on the method and setting. Some results given as binding are weak or reduced against the parent protein; the word gives no strength.

This assay deals with Rhesus 4-1BB (Sinobiological, Cat #90847-K08H) (Rhesus) (UniProt F6W5G6). The experiment in a line: ELISA, antigen coated at 25 ng/well, antibody 500 ng/mL.
In the case of B1, the binding entry is “binds”.

With B2, the binding result was “binds”.

B3: the binding entry was “binds”.

Consider B4, for which the binding entry is recorded as “binds”.
